Values from PubChem BioAssay AID1159584 (Peter MacCallum Cancer Centre, 2016).
The whole screen tested about 18,000 reagents; shown is an unselected part. Further read-outs or replicates are left out here. The record does not give: the amount of reagent, the time to read-out.

Assay: 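Knock-downs that harm CDH1-null cells more than parental MCF10A cells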 (primary screen)
System: human MCF10A breast epithelial cells, parental and CDH1-null
Reagents: siRNA against human genes
Measurement: 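Cell viability by CellTiter-Glo ATP luminescence, each line scaled to the mean of mock wells across plates, then CDH1-null over parental ratio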
Reading the numbers: CDH1-null / parental viability ratio: higher = CDH1-null cells survive relatively better than parental

| gene | CDH1-null / parental viability ratio |
| --- | --- |
| MLST8 (GeneID 64223) | 0.8 |
| C1orf174 (GeneID 339448) | 1.52 |
| TTF2 (GeneID 8458) | 1.05 |
| TAF8 (GeneID 129685) | 0.93 |
| OR4C6 (GeneID 219432) | 1.09 |
| SDC1 (GeneID 6382) | 1.58 |
| ENTR1 (GeneID 10807) | 1.15 |
| GABRB1 (GeneID 2560) | 1.28 |
| HPCAL1 (GeneID 3241) | 1.3 |
| RHOBTB1 (GeneID 9886) | 1.01 |
| ROM1 (GeneID 6094) | 1.58 |
| ULK1 (GeneID 8408) | 0.93 |
| JPH4 (GeneID 84502) | 1.19 |
| WT1-AS (GeneID 51352) | 0.84 |
| GP5 (GeneID 2814) | 0.97 |
| DNAAF8 (GeneID 146562) | 0.85 |
| RNF175 (GeneID 285533) | 0.91 |
| USP46 (GeneID 64854) | 1.14 |
| CYSTM1 (GeneID 84418) | 0.96 |
| CCDC116 (GeneID 164592) | 0.99 |
| CGB1 (GeneID 114335) | 1 |
| KLHL21 (GeneID 9903) | 1.06 |
| DAOA (GeneID 267012) | 0.95 |
| SCARA5 (GeneID 286133) | 0.84 |
| ANK3 (GeneID 288) | 0.95 |
| SIK3 (GeneID 23387) | 0.96 |
| PRLH (GeneID 51052) | 0.78 |
| RAB10 (GeneID 10890) | 1 |
| LIG3 (GeneID 3980) | 1.03 |
| CNOT7 (GeneID 29883) | 1.1 |
| SLC22A9 (GeneID 114571) | 1.17 |
| SLC12A9 (GeneID 56996) | 1.28 |
| LIPG (GeneID 9388) | 1.15 |
| ZBTB20 (GeneID 26137) | 0.85 |
| PRKCI (GeneID 5584) | 1.04 |
| RPRML (GeneID 388394) | 1.31 |
| TAF1A (GeneID 9015) | 1.14 |
| FGD1 (GeneID 2245) | 1.13 |
| NMT1 (GeneID 4836) | 0.96 |
| GTF2F2 (GeneID 2963) | 1.03 |
| GMEB1 (GeneID 10691) | 0.97 |
| TMIGD2 (GeneID 126259) | 1.33 |
| GFM2 (GeneID 84340) | 0.85 |
| LCE3A (GeneID 353142) | 1.5 |
| ZFP90 (GeneID 146198) | 0.86 |
| KLC2 (GeneID 64837) | 0.71 |
| ART5 (GeneID 116969) | 1 |
| KCNN4 (GeneID 3783) | 1.11 |
| SMC6 (GeneID 79677) | 1 |
| EFHC2 (GeneID 80258) | 0.9 |
| CEP170B (GeneID 283638) | 1.2 |
| TRIM2 (GeneID 23321) | 0.91 |
| MRPL41 (GeneID 64975) | 0.76 |
| ETV7 (GeneID 51513) | 0.82 |
| OR10A5 (GeneID 144124) | 0.77 |
| GNL1 (GeneID 2794) | 1.16 |
| SLC29A3 (GeneID 55315) | 0.82 |
| BPIFA3 (GeneID 128861) | 0.9 |
| KRT2 (GeneID 3849) | 1.02 |
| HIF1AN (GeneID 55662) | 1.1 |
| GPR4 (GeneID 2828) | 0.89 |
| KTI12 (GeneID 112970) | 1.11 |
| IGF1R (GeneID 3480) | 0.77 |
| CMA1 (GeneID 1215) | 1.13 |
| RPL23AP82 (GeneID 284942) | 1.33 |
| EIF2S1 (GeneID 1965) | 1.04 |
| ARAP2 (GeneID 116984) | 0.92 |
| BFSP2 (GeneID 8419) | 1.17 |
| MAGEA12 (GeneID 4111) | 1.13 |
| NME2 (GeneID 4831) | 1.04 |
| C16orf90 (GeneID 646174) | 1.27 |
| FAM20A (GeneID 54757) | 1.22 |
| DEFB107A (GeneID 245910) | 1.02 |
| NUAK1 (GeneID 9891) | 1.04 |
| TDG (GeneID 6996) | 1.13 |
| ABHD3 (GeneID 171586) | 0.91 |
| TBX19 (GeneID 9095) | 0.96 |
| NDUFB8 (GeneID 4714) | 1.06 |
| COQ9 (GeneID 57017) | 0.97 |
| SLC41A2 (GeneID 84102) | 0.69 |
| TMEM115 (GeneID 11070) | 0.96 |
| FICD (GeneID 11153) | 1.03 |
| DEFB103A (GeneID 414325) | 0.89 |
| PXT1 (GeneID 222659) | 0.96 |
| ARHGDIB (GeneID 397) | 1.11 |
| EGFL6 (GeneID 25975) | 1.79 |
| ZNF625 (GeneID 90589) | 0.86 |
